Assay results published in PubChem BioAssay AID624246 (National Center for Advancing Translational Sciences (NCATS), 2012).
Hit rate of the full screen: of about 370,000 compounds, about 100 (0.027%) were called active. Inconclusive means that the source gave no clear call. Such entries were picked first, then a sample of the others. Calls follow the shape of the dose curve; as a rule, active = well fitted inhibition curve with a large enough effect in the polarisation, with a control signal flat; inconclusive = small, poorly fitted or top-dose-only effect, or effect the other way, or a change in a side signal; inactive = no such curve, though single readings can be large or run the other way; the % refers to the polarisation. A potency beside an inconclusive call is a rough fit, not a confirmed value. A note “side channel” means that the fit belongs to a control or component signal, not to the main read-out.

The chains behind the UniProt entries cited, without tags or fusion partners.
UniProt P11308, whole entry, looked up: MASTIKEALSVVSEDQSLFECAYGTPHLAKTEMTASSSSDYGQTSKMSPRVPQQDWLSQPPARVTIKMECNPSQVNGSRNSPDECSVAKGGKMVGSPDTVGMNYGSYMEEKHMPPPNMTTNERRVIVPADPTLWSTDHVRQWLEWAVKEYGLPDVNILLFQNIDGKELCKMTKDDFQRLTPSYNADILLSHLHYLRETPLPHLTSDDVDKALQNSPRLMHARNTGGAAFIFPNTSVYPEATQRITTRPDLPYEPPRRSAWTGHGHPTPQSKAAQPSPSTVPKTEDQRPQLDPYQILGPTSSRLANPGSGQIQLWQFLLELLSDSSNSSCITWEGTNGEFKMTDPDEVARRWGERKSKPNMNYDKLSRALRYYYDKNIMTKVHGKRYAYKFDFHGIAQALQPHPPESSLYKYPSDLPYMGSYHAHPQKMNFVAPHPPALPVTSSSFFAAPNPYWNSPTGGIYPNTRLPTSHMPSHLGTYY

Each compound was assayed against Transcriptional regulator ERG (Homo sapiens) (UniProt P11308) (assay: qHTS for Small Molecule Inhibitors of the ERG Ets/DNA interaction). Conditions: fluorescence polarization, His-ERG Ets domain / labelled DNA; FP activity, negative = inhibition: at 76.9 µM (top of the series).
Method in brief: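 His-tagged ERG Ets domain (1 uM in the protein solution; 300mM KCl, 50mM Tris-HCl, 1mM EDTA, 1mM DTT, pH 7.5) received compound, then a probe mix of 5 nM fluorescein-DNA and 100nM Texas-615-DNA. Fluorescence polarization was read for both dyes.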
For FP activity, negative = inhibition in this document: % of control where 0% means no effect.
Potency is read from the fitted curve at half-maximal effect.

Row | SMILES | Potency | FP activity, negative = inhibition
1 | Nc1ccc(N)c(C(=O)O)c1 | inconclusive: 25.1 µM [inhibitor, partial curve] | –
2 | Cc1ccc(NCC(=O)N/N=C/c2c[nH]c3ccccc23)cc1 | inconclusive: 4.47 µM [inhibitor, single point] | –
3 | Cc1ccc(Cn2c(SCC(=O)N/N=C/c3ccccc3OCC(=O)O)nc3ccccc32)cc1 | inconclusive: 5.62 µM [inhibitor, partial curve, poor fit] | –
4 | COc1cc2ccccc2cc1C(=O)N1CC(C)CC(C)C1 (stereo unspecified) | – | inactive: 11.7%
5 | COc1ccc(N(C)S(=O)(=O)c2cccc(C(=O)OCC(=O)NCc3ccccc3OC)c2)cc1 | inconclusive: 39.8 µM [inhibitor, partial curve, poor fit] | –
6 | COc1ccc(CCNC(=O)CCc2c(C)nc3cc(-c4ccc(Cl)cc4)nn3c2C)c(OC)c1 | inconclusive: 39.8 µM [quencher, side channel, partial curve, poor fit] | –
7 | COc1cccc(/C=N/n2nnnc2N)c1O | inconclusive: 11.2 µM [inhibitor, single point] | –
8 | Cc1ccccc1NC(=S)NCCO | – | inactive: -1.86%
9 | Cc1cc2ccccc2n1CCNC(=O)COc1ccc2ccccc2c1 | inconclusive: 39.8 µM [inhibitor, single point] | –
10 | C(=N\Nc1nc(Nc2ccccc2)nc(N2CCOCC2)n1)/c1c[nH]c2ccccc12 | inconclusive: 11.2 µM [quencher, side channel, partial curve, poor fit] | –
11 | O=C(CSC1=NCCS1)NC(NC(=O)CSC1=NCCS1)c1ccccc1 | inconclusive: 35.5 µM [inhibitor, partial curve, poor fit] | –
12 | COc1ccc(C(=O)NC(=S)NCc2cccnc2)cc1OC | – | inactive: -1.68%
13 | c1ccc([C@H]2CN3C(=N2)Sc2ccccc23)cc1 | inconclusive: 1.26 µM [inhibitor, full curve, poor fit] | –
14 | COc1ccc(/C=C/C(=O)NNc2c(F)c(F)cc(F)c2F)cc1OC | inconclusive: 5.62 µM [quencher, side channel, full curve, poor fit] | –
15 | O=C(COC(=O)c1cccc(S(=O)(=O)N2CCc3ccccc32)c1)Nc1ncc(Cl)cc1Cl | – | inactive: 1.13%
16 | Cc1ccc(C)c(NC(=O)COC(=O)c2ccc[n+]([O-])c2)c1 | inconclusive: 28.2 µM [inhibitor, partial curve, poor fit] | –
17 | COC(=O)c1sccc1NC(=O)/C=C/C(=O)O | inconclusive: 3.55 µM [inhibitor, partial curve, poor fit] | –
18 | COc1ccc(OC(=O)/C=C/c2ccc([N+](=O)[O-])cc2)cc1 | inconclusive: 50.1 µM [inhibitor, single point] | –
19 | COc1cc(/C=N/N(c2ccccc2)c2ccccc2)ccc1O | – | inactive: 0.775%
20 | CCCCSc1nnc(CNC(=O)C23CC4CC(CC(C4)C2)C3)n1Cc1ccccc1 | inconclusive: 35.5 µM [quencher, side channel, partial curve, poor fit] | –
21 | C[N+](C)(C)CC(O)CC(=O)O (stereo unspecified) | inconclusive: 5.62 µM [inhibitor, partial curve, poor fit] | –
22 | CCN(CC)CCCNc1nc2ccccc2c2[nH]c3ccc(OC)cc3c12 | inconclusive: 17.8 µM [inhibitor, partial curve] | –

Row | SMILES | Potency | FP activity, negative = inhibition
23 | COC(=O)c1ccc2c(c1)C(C)(C)C(/C=C/c1ccc(OC)c(OC)c1OC)=[N+]2C | inconclusive: 31.6 µM [fluorescent, side channel, partial curve] | –
24 | NC1=NC(=O)/C(=C/c2c(OS(=O)(=O)c3ccc(Cl)cc3)ccc3ccccc23)S1 | – | inactive: -3.34%
25 | CCCN(CCC)C1=N/C(=C\c2ccco2)C(=O)N1c1ccccc1 | inconclusive: 28.2 µM [fluorescent, side channel, partial curve] | –
26 | CCOc1cc(/C=C2\CCCc3c2nc2ccccc2c3C(=O)O)ccc1OC | inconclusive: 25.1 µM [inhibitor, partial curve] | –
27 | CCNC(=S)N(CCO)Cc1cc2cc3c(cc2[nH]c1=O)OCO3 | inconclusive: 11.2 µM [inhibitor, single point] | –
28 | CN(C(=O)c1ccc(Cl)cc1)C1CCS(=O)(=O)C1 (stereo unspecified) | – | inactive: -15.8%
29 | Cc1ccc(C)c(NC(=S)/C(=C(\[O-])c2ccc(OC(F)F)cc2)[n+]2ccccc2)c1 | inconclusive: 11.2 µM [inhibitor, single point] | –
30 | COc1ccc(CCN2C(=O)CSC2=Nc2ccc(C(C)C)cc2)cc1OC | inconclusive: 28.2 µM [quencher, side channel, partial curve, poor fit] | –
31 | O=C(Nc1ncccc1O)c1ccc(S(=O)(=O)N2CCCC2)cc1 | inconclusive: 7.08 µM [inhibitor, single point] | –
32 | O=C(CN1C(=O)CS/C1=C\c1nc(-c2ccc(Cl)cc2)cs1)Nc1cccnc1Cl | inconclusive: 11.2 µM [inhibitor, single point] | –
33 | O=C1CCCC(O)=C1N=Nc1ccc(S(=O)(=O)N2CCOCC2)cc1 | inconclusive: 35.5 µM [inhibitor, single point] | –
34 | O=C(COc1ccc(Br)cc1Br)Nc1ccc(S(=O)(=O)Nc2ncccn2)cc1 | – | inactive: -2.01%
35 | Nc1nc(CSC(=S)N2CCCCC2)nc(Nc2ccccc2)n1 | – | inactive: 1.11%
36 | O=C(c1ccncc1)N1N=C(C2CC2)CC1(O)C(F)(F)F (stereo unspecified) | – | inactive: -7.19%
37 | Cc1ccc2nc(-c3ccc(NC(=O)Cc4ccccc4)cc3)sc2c1 | inconclusive: 2.51 µM [fluorescent, side channel, partial curve, poor fit] | –
38 | CCOC(=O)C1CCC(CN(Cc2ccccc2C)S(=O)(=O)c2ccc([N+](=O)[O-])cc2)CC1 (stereo unspecified) | inconclusive: 11.2 µM [inhibitor, partial curve, poor fit] | –
39 | CCN(CC)CCCNc1nc2cc(OC)c(OC)cc2c2nc(-c3ccccc3)nn12 | inconclusive: 39.8 µM [quencher, side channel, partial curve, poor fit] | –
40 | CC(=O)c1cc(CN2C(=O)c3ccccc3C2=O)cs1 | – | inactive: -0.195%
41 | COc1cc(/C=C/c2sc3ccccc3[n+]2CCCS(=O)(=O)[O-])ccc1O | inconclusive: 28.2 µM [fluorescent, side channel, partial curve] | –
42 | Cc1cc(C(=O)N/N=C/c2c(C)nn(-c3ccccc3)c2Cl)n[nH]1 | inconclusive: 50.1 µM [inhibitor, single point] | –
43 | Cc1ccc(NS(=O)(=O)c2ccc(CCC(=O)NCCCOC(C)C)cc2)cc1 | inconclusive: 31.6 µM [inhibitor, single point] | –
44 | CCc1noc2nc(C)n(CC(=O)O)c(=O)c12 | – | inactive: 2.34%

Row | SMILES | Potency | FP activity, negative = inhibition
45 | COc1ccc(NC(=O)CSc2ccc(-c3ccco3)nn2)cc1OC | inconclusive: 56.2 µM [inhibitor, partial curve, poor fit] | –
46 | COc1ccc(NC(=O)CN(C)C(=O)c2cc3c(s2)CCC3)cc1 | – | inactive: -14.8%
47 | CC(=O)N1CCN(c2ccc(Nc3ncnc4c3oc3ccccc34)cc2)CC1 | inconclusive: 3.55 µM [inhibitor, full curve, poor fit] | –
48 | CC(=O)Nc1ccc(NC2=CC(=O)c3ccccc3C2=O)cc1 | – | inactive: 0.0237%
49 | O=C(Cn1ncc2c3ccccc3n(Cc3ccc(Cl)cc3)c2c1=O)N1CCCCCC1 | – | inactive: 1.56%
50 | Clc1cccc(N2CCN(Cc3ccc(Br)o3)CC2)c1 | – | inactive: 2.5%
51 | OCCN(Cc1cccnc1)Cc1ccccn1 | – | inactive: -12.2%
52 | Cc1cccc(NC(=O)CN2C(=O)C3(SCC(=O)N3c3ccccc3)c3ccccc32)c1 (stereo unspecified) | – | inactive: -3.76%
53 | CN(C(=O)COC(=O)c1ccc(F)c(S(=O)(=O)N2CCOCC2)c1)C1CCS(=O)(=O)C1 (stereo unspecified) | inconclusive: 12.6 µM [inhibitor, partial curve, poor fit] | –
54 | CNc1nc2ccccc2n(C)c1=O | inconclusive: 39.8 µM [inhibitor, single point] | –
55 | O=C(O)c1ccc(Nc2ncc([N+](=O)[O-])cc2[N+](=O)[O-])cc1 | – | inactive: -6.88%
56 | CCOC(=O)c1sc(NC(=O)c2c(-c3ccccc3)c(-c3ccccc3)nn(C)c2=O)nc1C | inconclusive: 100 µM [inhibitor, single point] | –
57 | COc1cc(NC(=O)CSc2nc3nc(C)c(Cc4ccccc4Cl)c(C)n3n2)cc(OC)c1 | – | inactive: -0.594%
58 | COc1ccc(/C(O)=C/C(=O)C(=O)NNC(=O)C(O)(c2ccccc2)c2ccccc2)cc1 | – | inactive: -5.82%
59 | Cc1cc(C)cc(NC(=O)CCOc2ccccc2)c1 | inconclusive: 0.794 µM [inhibitor, partial curve, poor fit] | –
60 | Cc1ccc(C)c(NC(c2ccccc2)c2nnc(-c3ccccc3F)o2)c1 (stereo unspecified) | inconclusive: 50.1 µM [fluorescent, single point] | –
61 | Cc1nn(-c2ccccc2)c(CC(C)(C)C(=O)O)c1C(=O)O | inconclusive: 3.55 µM [fluorescent, side channel, partial curve, poor fit] | –
62 | Cc1ccc2c(COC(=O)c3ccccc3Br)cc(=O)oc2c1 | inconclusive: 5.62 µM [inhibitor, single point] | –
63 | CC1CN(C(=O)Nc2ccc(C(=O)NCCc3ccccc3Cl)cc2)c2ccccc2S1 (stereo unspecified) | inconclusive: 56.2 µM [quencher, side channel, partial curve, poor fit] | –
64 | COc1ccc(C(=O)N2CCc3ccc(NC(=O)c4ccccn4)cc3C2)cc1F | inconclusive: 0.891 µM [inhibitor, full curve, poor fit] | –
65 | CCOC(=O)c1ccc(N2C(=O)c3n[nH]c(C)c3C2c2ccc(OC)cc2OC)cc1 (stereo unspecified) | – | inactive: 7.1%
66 | COc1cccc(-c2nc(CS(=O)(=O)CC(=O)NC3CCCC3)c(C)o2)c1 | – | inactive: 20.7%

Molecules listed so far with bromine:
Row | SMILES | Potency | FP activity, negative = inhibition
34 | O=C(COc1ccc(Br)cc1Br)Nc1ccc(S(=O)(=O)Nc2ncccn2)cc1 | – | inactive: -2.01%
50 | Clc1cccc(N2CCN(Cc3ccc(Br)o3)CC2)c1 | – | inactive: 2.5%
62 | Cc1ccc2c(COC(=O)c3ccccc3Br)cc(=O)oc2c1 | inconclusive: 5.62 µM [inhibitor, single point] | –
